From PubChem BioAssay (NCATS) come the findings set out here.

Where “and” joins values, the source holds several entries; their conditions need not be identical. Equal entries are not always repeated. This is one part of the list. These are further read-outs of the screen, such as a control signal, another cell line or another target. No call is given for them. Most of these compounds were active or inconclusive in the main read-out, so they are no random draw. Potencies come from curve fits of mixed quality, noted in brackets.

The assay is described as follows: qHTS Assay for Inhibitors of PDE-IV (AID 607). The settings on record: HEK293 ACTOne CNG channel cells, membrane potential fluorescence; measured here: parental cell counter-screen. The method in brief:
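Cell-based read-out of cAMP via a modified cyclic nucleotide-gated channel and membrane potential dye (535/590 nm) in HEK293 cells expressing PDE4 endogenously. Compounds tested up to 22.9 uM final; 100 uM RO 20-1724 reference.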
For orientation: qHTS replaces the single test concentration by a dilution series.
Take `COC(=O)[C@H]1C[C@@H]1[C@H](NC(=O)c1ccccc1)c1ccccc1`: the AC50 (usually the midpoint of the concentration-response curve, whichever way the signal moves) is 0.631 µM [rising, single point]. Consider `O=C(NCC1CC1)[C@@H]1C[C@H]1[C@@H](NP(=O)(c1ccccc1)c1ccccc1)c1ccccc1`, for which the AC50 is 0.398 µM [rising, single point]. Consider `CCCCN1CCCC[C@H]1C(=O)Nc1c(C)cccc1C`, for which the AC50 was 5.01 µM [rising, partial curve]. Consider `CCCC[C@@H]1C[C@H]1C(NC(=O)c1cccs1)c1ccc(C(F)(F)F)cc1` (stereo not given in full), for which the AC50 is 12.6 µM [rising, partial curve]. As to `COc1ccccc1CNc1ncnc2ccc(-c3ccccc3CN(C)C)cc12`, the AC50 was 12.6 µM [rising, partial curve]. As to `COc1ccc(NC(=O)N2CC3(CCN(C(=O)c4c(C)noc4C)CC3)C2)cc1`, the AC50 is 3.98 µM [rising, single point]. To `CCc1c2c(nc3c(C(C)C)cccc13)-c1cccc(=O)n1C2` belongs 10 µM [rising, single point]; to `CC(C)NC(=O)N1CCC2(CC1)CCN(C(=O)c1cc(C(F)(F)F)cc(C(F)(F)F)c1)CC2`, 3.98 µM [rising, single point].

For the compound `Cc1cccc(CNc2cc(-c3ccccc3CN(C)C)ncn2)c1`, the AC50 was 12.6 µM [rising, single point].

For `O=C(O)COC(=O)Cc1ccccc1Nc1c(Cl)cccc1Cl`, the AC50 was 3.98 µM [rising, partial curve, poor fit].

On to `Nc1nc(SCc2ccccc2Cl)cc(C(=O)O)n1`, for which the AC50 was 1.58 µM [rising, partial curve].

On to `COc1ccc(C(=O)N2CCC3(CCCN(Cc4ccccc4)C3)CC2)cc1`, for which the AC50 is 12.6 µM [rising, single point]. For the compound `CN(C/C=C\c1ccccc1)Cc1cccc2ccccc12`, the AC50 is 7.94 µM [rising, partial curve]. To `C[C@@H](C(=O)O)c1ccc(C(=O)c2ccccc2)s1` belongs 1.26 µM [rising, partial curve]; to `Cc1noc(C)c1C(=O)N1CCC[C@@]2(CCN(C(=O)Nc3cccc(F)c3)C2)C1`, 3.98 µM [rising, single point]. Take `CCC[C@@H]1C[C@@]1(CCC)C(NP(=O)(c1ccccc1)c1ccccc1)c1ccc(Cl)cc1` (stereo not given in full): the AC50 was 10 µM [rising, partial curve]. For the compound `O=C(c1ccncc1)N1CCC2(CC1)CN(c1ccccn1)C2`, the half-maximal activity concentration (AC50) is 15.8 µM [rising, single point]. Next, `CCCC[C@@H]1C[C@H]1C(NC(=O)c1ccccc1)c1ccccc1C(F)(F)F` (stereo not given in full): 3.16 µM [rising, full curve]; `COc1cc2c(c(OC)c1OC)-c1ccc(OC)c(=O)cc1[C@H](NC(C)=O)CC2`: 12.6 µM [rising, single point]; `COC(=O)[C@@]1(Cc2ccc(OC)cc2)[C@H]2c3cc(C(=O)N4CCCC4)n(Cc4cc(F)cc5c4OCOC5)c3C[C@H]2CN1C(=O)c1ccccc1`: 12.6 µM [rising, single point]. Next, `C[C@H]1CC(C)(C)C[C@@](OCCN2CCCCC2)(c2ccccc2)C1`: 1.26 µM [rising, partial curve]; `C[C@@H](C(=O)NCc1ccccc1)[C@@H]1C[C@@]1(C)[C@@H](NC(=O)OCc1ccccc1)c1ccccc1`: 0.631 µM [rising, single point]; `CCCC[C@@H]1C[C@H]1C(NC(=O)c1ccco1)c1ccccc1` (stereo not given in full): 7.94 µM [rising, partial curve]. Regarding `COc1ccc(C(=O)N2CCC3(CCN(CC(C)C)CC3)CC2)cc1`, the AC50 was 3.98 µM [rising, single point].

For the compound `COc1cccc(OC)c1OCCNC[C@@H]1CSc2ccccc2O1`, the AC50 is 12.6 µM [rising, partial curve]. For the compound `O=C(c1csnn1)N1CCC[C@@]2(CCN(Cc3cc(C(F)(F)F)cc(C(F)(F)F)c3)C2)C1`, the AC50 was 0.631 µM [rising, partial curve]. Regarding `CC(=O)ON(C(C)=O)S(=O)(=O)c1ccc(Cl)cc1`, the AC50 was 15.8 µM [rising, single point]. For `C[C@@H](C(=O)Nc1ccc2ccccc2c1)[C@H]1C[C@]1(C)[C@H](NC(=O)c1ccccc1)c1ccccc1`, the AC50 was 0.631 µM [rising, single point]. On to `c1ccc(-c2c3ccccc3nc3[nH]c4ccccc4c23)cc1`, for which the AC50 was 12.6 µM [rising, partial curve]. With `CCCC/C=C/C(NC(=O)OCc1ccccc1Cl)c1ccccc1` (stereo not given), the AC50 was 12.6 µM [rising, single point]. Turning to `COC(=O)N1CCC2(CCCN(C(=O)Nc3cccc(F)c3)C2)CC1`, the AC50 was 15.8 µM [rising, single point]. To `O[C@@](CCN1CCCCC1)(c1ccccc1)C1CCCCC1` belongs 10 µM [rising, partial curve] and 7.94 µM [rising, partial curve]. Next, `COC(=O)[C@@]1(Cc2ccc(F)cc2)[C@H]2c3cc(C(=O)N4CCCC4)n(Cc4ccc(S(C)(=O)=O)cc4)c3C[C@H]2CN1C(=O)c1ccccc1`: 10 µM [rising, single point]. With `CC(C)c1cc(C(F)(F)F)nc(NNc2nc(C(C)C)cc(C(F)(F)F)n2)n1`, the AC50 was 1.26 µM [rising, partial curve]. For the compound `COC(=O)[C@@H]1C[C@H]1[C@@H](NS(=O)(=O)c1ccc(-c2ccccc2)cc1)c1ccccc1`, the AC50 was 0.631 µM [rising, single point]. For the compound `CC[C@@H]1CN2CCc3cc(OC)c(OC)cc3[C@H]2C[C@@H]1C[C@H]1NCCc2cc(OC)c(OC)cc21`, the AC50 was 12.6 µM [rising, partial curve].

For the compound `C[C@@]12C(=O)OC(=O)[C@@]1(C)[C@H]1CC[C@@H]2O1`, the AC50 was 15.8 µM [rising, partial curve, poor fit].

As for `CN(C)Cc1ccccc1-c1nc(N(C)Cc2ccco2)c2ccccc2n1`, the AC50 is 12.6 µM [rising, single point]. Consider `Cn1cccc1C(=O)N1CCC[C@@]2(CCN(c3ccccn3)C2)C1`, for which the AC50 is 3.98 µM [rising, single point]. `CCCCC#Cc1ccccc1CC(=O)Nc1ccccc1`: the AC50 was 10 µM [rising, single point].
